Experimental data as given in patent US5703232A, “Process and solvate of 2-methyl-thieno-benzodiazepine” (Eli Lilly and Company, priority 1996, dated 1997).

System: 5-HT1C receptor
Settings: in vitro

Cc1cc2c(s1)Nc1ccccc1N=C2N1CCN(C)CC1 [anhydrous Form I olanzapine, 2-methyl-4-(4-methyl-1-piperazinyl)-10H-thieno[2,3-b][1,5]benzodiazepine]
activity at the 5-HT1C receptor: active
